{
  "source": "paper PMC11962866",
  "about": "(RSC Advances, 2025)",
  "tested_on": "MRC-5 cells",
  "experiment": "Cytotoxicity assay on normal cells",
  "type": "cell-based",
  "details": "Homo sapiens, MRC5, 72 h, read-out: IC50 on MRC-5 cell lines",
  "data": [
    {"smiles": "Clc1ccc(COC(Cn2ccnc2)c2ccc(Cl)cc2Cl)c(Cl)c1", "note": "(stereo not shown) [Miconazole, miconazole]", "values": [
      {"measurement": "IC50", "result": "> 100", "unit": "µM"}
    ]}
  ]
}
